Counter-ions that a name gives are not always drawn. ± gives the standard deviation of the averaged measurements. This is one part of the list. Single values are uncertain, as repeats are few or missing.
System: RAW 264.7
Experiment: HMGB1-induced TNF-alpha production relative to HMGB1-stimulated control; higher = more TNF-alpha secretion (less inhibition)
Conditions: stimulus: HMGB1 5 ug/ml, 18 h
[1] = compound concentration: 1 ug/ml

Row | SMILES | HMGB1-induced TNF-alpha production (compound concentration: 3 uM) | HMGB1-induced TNF-alpha production [1]
1 | C[C@]12CCC(=O)C=C1CC[C@@H]1[C@@H]2C(=O)C[C@@]2(C)[C@H]1CC[C@]2(O)C(=O)CO [Cortisone] | 84.4 ± 15% | 
2 | C[C@]12CCC(=O)C=C1CC[C@@H]1[C@@H]2C(=O)C[C@@]2(C)[C@H]1CC[C@]2(O)C(=O)CO | 102 ± 20% | 
3 | O=C1N[C@H](C(=O)O)CS1 [4-Thiazolidinecarboxylic acid, 2-oxo-, (R)- [CAS]] | 105% | 
4 | CC[C@H](C)[C@H](NC(=O)OCC1c2ccccc2-c2ccccc21)C(=O)O [FMOC-L-Isoleucine] |  | 76.2%
5 | CCN(CC)CCNC(=O)c1ccc(NS(C)(=O)=O)cc1 [Sematilide monohydrochloride monohydrate] | 85.4% | 
6 | C[C@H](N[C@@H](CCc1ccccc1)C(=O)O)C(=O)N1CCC[C@H]1C(=O)O [Enalaprilat] | 108% | 
7 | C[C@H](N[C@@H](CCc1ccccc1)C(=O)O)C(=O)N1CCC[C@H]1C(=O)O | 116% | 
8 | C[C@H](N[C@@H](CCc1ccccc1)C(=O)O)C(=O)N1CCC[C@H]1C(=O)O [Enalaprilat dihydrate] | 99.4% | 
9 | O=C(O)C1CCCNC1 (racemic) [(±)-Nipecotic acid] | 95.8% | 
10 | CN(C)[C@@H]1C(O)=C(C(N)=O)C(=O)[C@@]2(O)C(O)=C3C(=O)c4c(O)cccc4[C@@](C)(O)[C@H]3C[C@@H]12 [Tetracycline] | 90.7% | 
11 | CN(C)[C@@H]1C(O)=C(C(N)=O)C(=O)[C@@]2(O)C(O)=C3C(=O)c4c(O)cccc4[C@@](C)(O)[C@H]3C[C@@H]12 [Tetracycline hydrochloride] | 72.9% | 74.5%
12 | CN(C)[C@@H]1C(O)=C(C(N)=O)C(=O)[C@@]2(O)C(O)=C3C(=O)c4c(O)cccc4[C@@](C)(O)[C@H]3C[C@@H]12 | 93.6% | 
13 | COc1cc2nc(N3CCN(C(=O)OCc4ccccc4)[C@H](C(=O)NC(C)(C)C)C3)nc(N)c2cc1OC | 108% | 
14 | Cc1cccc(C)c1NC(=O)c1ccccc1C(=O)O | 89.4% | 
15 | CCNC(=O)[C@H]1O[C@@H](n2cnc3c(N)nc(NCCc4ccc(CCC(=O)O)cc4)nc32)[C@H](O)[C@@H]1O | 89.3% | 
16 | CNCCNS(=O)(=O)c1cccc2cnccc12 [H-8 dihydrochloride] | 113% | 
17 | C[C@](N)(Cc1ccc(O)cc1)C(=O)O [L-alpha-Methyl-p-tyrosine] | 110% | 
18 | CC(C)NCC(O)COc1cccc2ccccc12 (racemic) | 84.4% | 
19 | CC(C)NCC(O)COc1cccc2ccccc12 (racemic) [(±)-Propranolol hydrochloride] | 113% | 
20 | CS(=O)(=O)c1ccc([C@@H](O)[C@@H](CF)NC(=O)C(Cl)Cl)cc1 | 84.3% | 
21 | CS(=O)(=O)c1ccc([C@@H](O)[C@@H](CF)NC(=O)C(Cl)Cl)cc1 [Florfenicol] | 97.2 ± 3% | 
22 | CCN(CC)CCCC(C)Nc1ccnc2cc(Cl)ccc12 (centres undefined) [Chloroquine diphosphate] | 72.3 ± 12% | 

Row | SMILES | HMGB1-induced TNF-alpha production (compound concentration: 3 uM) | HMGB1-induced TNF-alpha production [1]
23 | CCN(CC)CCCC(C)Nc1ccnc2cc(Cl)ccc12 (centres undefined) [Chloroquine] | 106% | 
24 | CCN(CC)CCCC(C)Nc1ccnc2cc(Cl)ccc12 (centres undefined) | 89.2 ± 0.9% | 
25 | NC(Cc1c[nH]c2cc(F)ccc12)C(=O)O (racemic) [6-Fluoro-DL-tryptophan] |  | 64.8%
26 | Nc1ccc(S(=O)(=O)NC(=O)c2ccccc2)cc1 [Sulfabenzamide] | 88.4% | 
27 | Nc1ccc(S(=O)(=O)NC(=O)c2ccccc2)cc1 | 85.9% | 
28 | C[N+](C)(C)CCOP(=O)(O)OP(=O)([O-])OC[C@H]1O[C@@H](n2ccc(N)nc2=O)[C@H](O)[C@@H]1O [Cytidine 5'-diphosphocholine sodium salt hydrate] | 81.1% | 
29 | C[N+](C)(C)CCOP(=O)(O)OP(=O)([O-])OC[C@H]1O[C@@H](n2ccc(N)nc2=O)[C@H](O)[C@@H]1O | 112% | 
30 | CC(C)c1nc(N(C)S(C)(=O)=O)nc(-c2ccc(F)cc2)c1/C=C/[C@@H](O)C[C@@H](O)CC(=O)O | 89.3% | 
31 | C=C(CC)C(=O)c1ccc(OCC(=O)O)c(Cl)c1Cl [Ethacrynic Acid] | 70.5% | 
32 | C=C(CC)C(=O)c1ccc(OCC(=O)O)c(Cl)c1Cl [Ethacrynic acid] | 44.5% | 
33 | C=C(CC)C(=O)c1ccc(OCC(=O)O)c(Cl)c1Cl | 43.3% | 
34 | O=c1ccc2cc3ccoc3cc2o1 [Psoralen] |  | 70.8%
35 | CN=c1nc(-c2ccccc2)n(-c2ccccc2)s1 | 110% | 
36 | Nc1ncnc2c1ncn2[C@@H]1O[C@H](CO)C[C@@H]1O [3'-deoxydenosine] | 98.8% | 
37 | O=C1NCCN1c1ncc([N+](=O)[O-])s1 [Niridazole] | 71.3% | 
38 | C1N2CN3CN1CN(C2)C3 | 89.5% | 
39 | C1N2CN3CN1CN(C2)C3 [Methenamine] | 96.5% | 
40 | O=C(O)C1=C[C@@H](O)[C@@H](O)[C@H](O)C1 [Shikimic acid] |  | 74.3%
41 | CCCCCN(C)CCC(O)(P(=O)(O)O)P(=O)(O)O [Ibandronate sodium] | 97.9% | 
42 | CCCCCN(C)CCC(O)(P(=O)(O)O)P(=O)(O)O [Ibandronate] | 86.7 ± 2.6% | 
43 | CNc1ncnc2c1ncn2[C@@H]1O[C@H](CO)[C@@H](O)[C@H]1O [N6-Methyladenosine] | 110% | 
44 | CNc1ncnc2c1ncn2[C@@H]1O[C@H](CO)[C@@H](O)[C@H]1O [N6-methyladenosine] | 61.3% | 

In a second layout: entries from further up

| Row | SMILES | HMGB1-induced TNF-alpha production (compound concentration: 3 uM) | HMGB1-induced TNF-alpha production [1] |
| --- | --- | --- | --- |
| 25 | NC(Cc1c[nH]c2cc(F)ccc12)C(=O)O (racemic) [6-Fluoro-DL-tryptophan] |  | 64.8% |
| 29 | C[N+](C)(C)CCOP(=O)(O)OP(=O)([O-])OC[C@H]1O[C@@H](n2ccc(N)nc2=O)[C@H](O)[C@@H]1O | 112% |  |
| 37 | O=C1NCCN1c1ncc([N+](=O)[O-])s1 [Niridazole] | 71.3% |  |
| 44 | CNc1ncnc2c1ncn2[C@@H]1O[C@H](CO)[C@@H](O)[C@H]1O [N6-methyladenosine] | 61.3% |  |

(list continues)

Row | SMILES | HMGB1-induced TNF-alpha production (compound concentration: 3 uM) | HMGB1-induced TNF-alpha production [1]
45 | OCC(O)CN1CCN(c2ccccc2)CC1 (racemic) [Dropropizine (R,S)] | 86.6% | 
46 | CC(C)(C)C(=O)OCOC(=O)[C@@H]1N2C(=O)[C@@H](/N=C/N3CCCCCC3)[C@H]2SC1(C)C [Pivmecillinam hydrochloride] | 119% | 
47 | N[C@@H](CC(=O)O)C(=O)O [L-Aspartic acid] | 91.4% | 
48 | CCCCN1C[C@H](O)[C@@H](O)[C@H](O)[C@H]1CO [Miglustat] | 88.5% | 
49 | C[C@@H](O)[C@H]1C(=O)N2C(C(=O)O)=C(SCCNC=N)C[C@H]12 [Imipenem] | 59.4 ± 38% | 
50 | C[C@@H](O)[C@H]1C(=O)N2C(C(=O)O)=C(SCCNC=N)C[C@H]12 [Imipenem monohydrate] | 73% | 
51 | c1ccc2c(c1)CCCC2C1=NCCN1 (centres undefined) [Tetrahydrozoline hydrochloride] | 111.7 ± 1.1% | 
52 | c1ccc2c(c1)CCCC2C1=NCCN1 (centres undefined) | 85.2% | 
53 | C=CC(N)CCC(=O)O (racemic) [(±)-gamma-Vinyl GABA] | 102% | 
54 | C=CCc1ccc(O)c(OC)c1 [Eugenol] |  | 78.1%
55 | C=CCc1ccc(O)c(OC)c1 | 85.5% | 
56 | CC(=O)OCC(=O)NCCCOc1cccc(CN2CCCCC2)c1 | 96.9% | 
57 | CC(=O)OCC(=O)NCCCOc1cccc(CN2CCCCC2)c1 [Roxatidine Acetate HCl] | 73.2% | 
58 | CC(=O)OCC(=O)NCCCOc1cccc(CN2CCCCC2)c1 [Roxatidine acetate] | 96.8% | 
59 | CCn1cc(C(=O)O)c(=O)c2cc(F)c(N3CCNCC3)nc21 [Enoxacin] | 99.8 ± 3.4% | 
60 | CCn1cc(C(=O)O)c(=O)c2cc(F)c(N3CCNCC3)nc21 | 109% | 
61 | CC1(C)CCC=[N+]1[O-] [5,5-Dimethyl-1-pyrroline-N-oxide] | 86.6% | 
62 | CC1(C)CCC(NC(=O)[C@@H](N)CCC(=O)O)CC1 | 126% | 
63 | Nc1ncnc2c1ncn2C1CC(O)C(CO)O1 (centres undefined) [2'-Deoxyadenosine monohydrate] |  | 76.3%
64 | Nc1ncnc2c1ncn2C1CC(O)C(CO)O1 (centres undefined) [2'-Deoxyadenosine hydrate] |  | 79.3%
65 | O=C(O)C1CCNCC1 [Isonipecotic acid] | 96.5% | 
66 | O=C1NC(=O)C(c2ccccc2[N+](=O)[O-])=C1Nc1ccc(O)c(Cl)c1 | 80.4% | 

Row | SMILES | HMGB1-induced TNF-alpha production (compound concentration: 3 uM) | HMGB1-induced TNF-alpha production [1]
67 | CCCc1ncc(C[n+]2ccccc2C)c(N)n1 [Amprolium hydrochloride] | 76.9% | 
68 | CCCc1ncc(C[n+]2ccccc2C)c(N)n1 | 77.2% | 
69 | Oc1ccc(C2CNCCc3c2cc(O)c(O)c3Cl)cc1 (centres undefined) | 97.2% | 
70 | Oc1ccc(C2CNCCc3c2cc(O)c(O)c3Cl)cc1 (centres undefined) [Fenoldopam bromide] | 110% | 
71 | Oc1ccc(C2CNCCc3c2cc(O)c(O)c3Cl)cc1 (centres undefined) [Fenoldopam] | 99.4% | 
72 | CC(C(=O)O)c1cccc(Oc2ccccc2)c1 (centres undefined) [Fenoprofen calcium salt dihydrate] | 90.6% | 
73 | CC(C(=O)O)c1cccc(Oc2ccccc2)c1 (centres undefined) [Fenoprofen] | 91.8% | 
74 | CC(C(=O)O)c1cccc(Oc2ccccc2)c1 (centres undefined) | 99.2% | 
75 | O=C(O)CN(CCN(CC(=O)O)CC(=O)O)CC(=O)O.[Na+].[Na+].[Na+] | 102% | 
76 | C[C@@H]1CN(CCCn2c3ccccc3c3ccccc32)C[C@H](C)N1 [Rimcazole] | 107% | 
77 | O=C1OC(c2ccc(O)cc2)(c2ccc(O)cc2)c2ccccc21 | 101% | 
78 | COc1ccc2c(C)cc(=O)oc2c1 [7-methoxy-4-methylcoumarin] |  | 65.1%
79 | CC(C)CSC[C@H]1O[C@@H](n2cnc3c(N)ncnc32)[C@H](O)[C@@H]1O [5'-Isobutylthio-5'-deoxyadenosine] |  | 49.7%
80 | NCCc1c[nH]cn1 | 87.7% | 
81 | NCCc1c[nH]cn1 [Histamine dihydrochloride] | 81.8% | 
82 | NCCc1c[nH]cn1 [Histamine Dihydrochloride] |  | 78.7%
83 | CCCOc1cc(N)ccc1C(=O)OCCN(CC)CC [Propoxycaine hydrochloride] | 116% | 
84 | OC(Cn1cncn1)(Cn1cncn1)c1ccc(F)cc1F [Fluconazole] | 92.1 ± 11% | 
85 | OC(Cn1cncn1)(Cn1cncn1)c1ccc(F)cc1F | 76.1% | 
86 | Cc1cn([C@H]2C[C@H](O)[C@@H](C)O2)c(=O)[nH]c1=O [5'-Deoxythymidine] |  | 74.2%
87 | Nc1[nH]cnc2ncnc1-2 | 93.7% | 
88 | CC(=O)[C@@]1(O)CC[C@H]2[C@@H]3C=C(Cl)C4=CC(=O)[C@@H]5C[C@@H]5[C@]4(C)[C@H]3CC[C@@]21C | 80.3% | 
